According to PMC7891773:
Results are given in words; binding and its absence hold for the method and conditions named. In cells and extracts the contact can be indirect. For part of these data: Binding can be weak; no strength is given. Sequences can lack the tags named with a protein.

Columns and labels:
[1] = target: T1, GST-mFOG1 (aa 1-45) (mouse) (UniProt O35615); assay: pull-down; 10-20 μg GST fusion on Glutathione Sepharose with 1 mg S2 cell nuclear extract or Drosophila embryo nuclear extract (TRAX); overnight at 4°C; 25 mM Hepes/KOH pH 7.6, 150 mM KCl, 0.1% NP-40; Western blot; only the target purified
T1 sequence: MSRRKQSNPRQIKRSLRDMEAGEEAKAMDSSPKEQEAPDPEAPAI

[2] = target: T1, GST-mFOG1 (aa 1-45) (mouse); assay: pull-down; GST-mFOG1(1-45) on Glutathione Sepharose with S2 cell nuclear extract, without or with competing peptides; Western blot; the pair that is blocked; only the target purified

Row | binding [1] | binding [2] | Substance
1 | no binding |  | dLSD1 (enzyme)
2 | no binding |  | dMEP-1
3 |  | binds | dp66
